Protein sequences, listed by entry. Tags and fused reporters are not part of them. Lines headed by an entry give the natural chain unless they say otherwise; changes in a name come on top.
UniProt Q8TEW0: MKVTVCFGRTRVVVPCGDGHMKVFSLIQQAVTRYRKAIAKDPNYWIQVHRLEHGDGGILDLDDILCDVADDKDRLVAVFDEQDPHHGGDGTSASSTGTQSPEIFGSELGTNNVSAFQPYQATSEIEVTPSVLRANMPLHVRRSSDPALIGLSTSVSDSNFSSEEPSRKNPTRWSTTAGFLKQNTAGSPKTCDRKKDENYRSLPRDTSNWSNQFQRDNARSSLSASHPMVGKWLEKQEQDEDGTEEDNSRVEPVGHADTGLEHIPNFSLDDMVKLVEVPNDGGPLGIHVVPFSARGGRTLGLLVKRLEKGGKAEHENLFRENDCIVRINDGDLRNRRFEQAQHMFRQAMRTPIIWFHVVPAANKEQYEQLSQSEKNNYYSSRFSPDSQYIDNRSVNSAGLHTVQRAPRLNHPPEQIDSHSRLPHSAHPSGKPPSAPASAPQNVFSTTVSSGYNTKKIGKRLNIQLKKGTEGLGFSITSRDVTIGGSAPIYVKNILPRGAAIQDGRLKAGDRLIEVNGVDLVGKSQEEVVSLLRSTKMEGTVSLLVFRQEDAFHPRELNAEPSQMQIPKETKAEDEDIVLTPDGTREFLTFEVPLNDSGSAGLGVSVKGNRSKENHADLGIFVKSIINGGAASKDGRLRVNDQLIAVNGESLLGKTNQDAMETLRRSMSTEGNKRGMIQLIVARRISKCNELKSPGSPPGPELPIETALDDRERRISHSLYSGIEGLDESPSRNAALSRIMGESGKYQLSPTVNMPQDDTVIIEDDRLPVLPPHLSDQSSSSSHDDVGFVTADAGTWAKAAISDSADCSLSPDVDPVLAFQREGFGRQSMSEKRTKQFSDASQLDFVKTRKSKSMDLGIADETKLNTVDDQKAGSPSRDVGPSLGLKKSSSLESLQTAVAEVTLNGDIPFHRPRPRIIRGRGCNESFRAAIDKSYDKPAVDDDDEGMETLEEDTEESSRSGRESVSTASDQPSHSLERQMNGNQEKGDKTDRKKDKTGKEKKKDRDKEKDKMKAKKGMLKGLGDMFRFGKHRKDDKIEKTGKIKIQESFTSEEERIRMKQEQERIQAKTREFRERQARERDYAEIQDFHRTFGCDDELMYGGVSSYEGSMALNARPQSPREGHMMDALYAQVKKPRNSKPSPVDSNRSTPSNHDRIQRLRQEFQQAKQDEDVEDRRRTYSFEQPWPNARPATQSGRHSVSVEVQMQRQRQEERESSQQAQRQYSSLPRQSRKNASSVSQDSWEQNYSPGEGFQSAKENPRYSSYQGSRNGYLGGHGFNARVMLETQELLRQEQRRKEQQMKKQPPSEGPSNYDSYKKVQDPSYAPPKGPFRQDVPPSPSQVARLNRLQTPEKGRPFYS
UniProt A0A2R8QCI3: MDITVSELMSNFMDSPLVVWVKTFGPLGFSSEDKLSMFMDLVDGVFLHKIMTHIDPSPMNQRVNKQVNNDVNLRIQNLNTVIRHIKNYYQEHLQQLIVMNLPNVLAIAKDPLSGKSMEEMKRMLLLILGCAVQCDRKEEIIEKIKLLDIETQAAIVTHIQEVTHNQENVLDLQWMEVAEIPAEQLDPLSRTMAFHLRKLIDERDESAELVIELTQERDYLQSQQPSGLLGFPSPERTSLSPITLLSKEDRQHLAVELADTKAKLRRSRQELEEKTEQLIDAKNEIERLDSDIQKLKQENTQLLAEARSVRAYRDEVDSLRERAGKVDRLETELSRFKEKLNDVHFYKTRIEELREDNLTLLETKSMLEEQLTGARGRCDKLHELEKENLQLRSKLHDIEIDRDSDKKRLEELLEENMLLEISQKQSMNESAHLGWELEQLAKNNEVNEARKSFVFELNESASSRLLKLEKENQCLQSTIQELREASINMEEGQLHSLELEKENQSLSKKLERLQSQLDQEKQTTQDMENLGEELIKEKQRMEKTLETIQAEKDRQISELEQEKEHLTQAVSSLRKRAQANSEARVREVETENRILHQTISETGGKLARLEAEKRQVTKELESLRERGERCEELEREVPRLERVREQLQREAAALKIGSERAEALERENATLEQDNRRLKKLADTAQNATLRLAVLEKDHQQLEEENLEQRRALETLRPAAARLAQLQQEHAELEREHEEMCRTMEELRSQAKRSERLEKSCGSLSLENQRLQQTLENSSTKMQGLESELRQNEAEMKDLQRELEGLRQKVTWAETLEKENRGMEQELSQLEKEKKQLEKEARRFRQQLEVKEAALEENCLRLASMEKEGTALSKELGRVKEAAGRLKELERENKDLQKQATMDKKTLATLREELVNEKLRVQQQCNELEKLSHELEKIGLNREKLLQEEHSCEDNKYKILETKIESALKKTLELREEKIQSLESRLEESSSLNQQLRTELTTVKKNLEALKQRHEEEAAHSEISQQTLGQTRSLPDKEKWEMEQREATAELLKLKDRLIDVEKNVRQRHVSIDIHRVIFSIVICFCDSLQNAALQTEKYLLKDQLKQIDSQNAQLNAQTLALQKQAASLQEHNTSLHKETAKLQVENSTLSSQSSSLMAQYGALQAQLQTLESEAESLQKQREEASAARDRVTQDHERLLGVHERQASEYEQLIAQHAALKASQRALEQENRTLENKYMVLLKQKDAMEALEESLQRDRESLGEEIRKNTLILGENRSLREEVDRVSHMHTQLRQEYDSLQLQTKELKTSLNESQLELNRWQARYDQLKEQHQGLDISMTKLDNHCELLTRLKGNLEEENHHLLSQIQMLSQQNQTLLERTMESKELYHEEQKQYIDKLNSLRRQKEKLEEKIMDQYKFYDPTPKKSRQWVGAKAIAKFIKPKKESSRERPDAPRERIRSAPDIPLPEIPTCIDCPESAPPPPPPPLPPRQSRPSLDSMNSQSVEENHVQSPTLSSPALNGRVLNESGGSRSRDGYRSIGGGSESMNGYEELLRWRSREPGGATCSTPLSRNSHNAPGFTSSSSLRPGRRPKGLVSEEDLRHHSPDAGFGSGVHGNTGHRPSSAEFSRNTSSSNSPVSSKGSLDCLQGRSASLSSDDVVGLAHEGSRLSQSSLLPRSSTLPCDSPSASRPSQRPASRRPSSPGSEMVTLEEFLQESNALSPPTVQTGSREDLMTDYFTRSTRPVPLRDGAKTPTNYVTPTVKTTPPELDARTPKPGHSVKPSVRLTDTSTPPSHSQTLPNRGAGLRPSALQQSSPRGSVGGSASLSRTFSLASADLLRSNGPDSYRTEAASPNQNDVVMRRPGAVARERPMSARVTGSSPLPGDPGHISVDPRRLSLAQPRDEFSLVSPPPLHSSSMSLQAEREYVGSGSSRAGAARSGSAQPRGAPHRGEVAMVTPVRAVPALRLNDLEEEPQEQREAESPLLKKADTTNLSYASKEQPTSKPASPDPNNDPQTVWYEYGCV

In publication doi:10.1101/2020.09.28.317172:

Target: GST-tagged PDZ domains of ParD3 (UniProt Q8TEW0)
Assay: pull-down

## C-terminus of zebrafish Daple (from UniProt A0A2R8QCI3) (domain or fragment)
  binding: binds

Results are given in words; binding and its absence hold for the method and conditions named. Binding seen in cells or lysates may run through a third protein. Binding calls can cover weak binding; strength is not graded here.
